PubChem BioAssay AID743121 – NCATS, 2013
Test: 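Partners whose loss is lethal together with topoisomerase I blockade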 (primary screen). Cells: MDA-MB-231 cells, a human breast cancer line. Reagent: single siRNA against human genes, 20 nM siRNA (0.8 pmol per well). Duration: 120 h (drug added 48 h after transfection, read 72 h later). Conditions: camptothecin 20 nM (about EC30) for 72 h; vehicle 0.1% DMSO in parallel plates. Read-out: 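CellTiter-Glo ATP signal, scaled to control siRNA as percent viability; sensitisation given as log2 of untreated divided by camptothecin-treated viability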. Reading the numbers: log2 vehicle/camptothecin viability: higher = stronger sensitisation to camptothecin. Call rule: 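Active genes have an RSA gene-level p-value below 0.001, computed from the ratios of their separate siRNAs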.
Here is one part, drawn at random, of about 26,000 reagents tested. Over the whole deposit, 167 (0.63%) were called active. 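Calls are per gene from RSA p-values that are not deposited; an individual active-marked siRNA can sensitise only weakly.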 A number with no mark means an inactive call. Further read-outs or replicates are left out here. No sequences are given here.

log2 vehicle/camptothecin viability | gene | PubChem SID
-0.6 | RNF11 (GeneID 26994) | SID164461851
0.686 | RNF11 (GeneID 26994) | SID164461854
-0.16 | RNF11 (GeneID 26994) | SID164461855
-0.095 | RNF11 (GeneID 26994) | SID164461856
-0.126 | CEP43 (GeneID 11116) | SID164415656
-0.323 | CEP43 (GeneID 11116) | SID164415659
0.352 | CEP43 (GeneID 11116) | SID164415661
0.255 | CEP43 (GeneID 11116) | SID164415662
-0.185 | HAS2 (GeneID 3037) | SID164368536
-0.468 | HAS2 (GeneID 3037) | SID164368539
-0.485 | HAS2 (GeneID 3037) | SID164368540
-0.742 | NPHS1 (GeneID 4868) | SID164378321
-0.151 | NPHS1 (GeneID 4868) | SID164378322
-0.38 | NPHS1 (GeneID 4868) | SID164378324
0.334 | NPHS1 (GeneID 4868) | SID164378325
-0.0133 | NTF4 (GeneID 4909) | SID164378554
-0.00506 | NTF4 (GeneID 4909) | SID164378555
-0.011 | NTF4 (GeneID 4909) | SID164378558
0.138 | NTF4 (GeneID 4909) | SID164378559
0.46 | HACD2 (GeneID 201562) | SID164586019
-0.542 | HACD2 (GeneID 201562) | SID164586020
-0.578 | HACD2 (GeneID 201562) | SID164586021
0.345 | HACD2 (GeneID 201562) | SID164586022
0.153 | SI (GeneID 6476) | SID164387995
-0.374 | SI (GeneID 6476) | SID164387997
-0.213 | SI (GeneID 6476) | SID164387999
-0.239 | SI (GeneID 6476) | SID164388001
-0.201 | HSD11B1 (GeneID 3290) | SID164370079
-0.0818 | HSD11B1 (GeneID 3290) | SID164370080
-0.228 | HSD11B1 (GeneID 3290) | SID164370081
-0.0323 | HSD11B1 (GeneID 3290) | SID164370083
0.119 | ITFG2 (GeneID 55846) | SID164487241
0.0713 | ITFG2 (GeneID 55846) | SID164487242
0.337 | ITFG2 (GeneID 55846) | SID164487245
-0.174 | ITFG2 (GeneID 55846) | SID164487247
-0.0426 | BAG2 (GeneID 9532) | SID164404372
0.0451 | BAG2 (GeneID 9532) | SID164404373
-0.376 | BAG2 (GeneID 9532) | SID164404374
-0.108 | BAG2 (GeneID 9532) | SID164404375
-0.575 | MYC (GeneID 4609) | SID164376648
-0.201 | MYC (GeneID 4609) | SID164376650
-0.248 | MYC (GeneID 4609) | SID164376651
-0.474 | MYC (GeneID 4609) | SID164376652
-0.127 | SLC25A31 (GeneID 83447) | SID164540016
0.14 | SLC25A31 (GeneID 83447) | SID164540017
-0.126 | SLC25A31 (GeneID 83447) | SID164540019
0.188 | SLC25A31 (GeneID 83447) | SID164540021

Look-ups from above:
Result of MYC (GeneID 4609) [SID164376650] in “log2 vehicle/camptothecin viability”: -0.201
For “log2 vehicle/camptothecin viability”, HSD11B1 (GeneID 3290) [SID164370081] has -0.228
